Source: article PMC7819943, “Rice protein-binding microarrays: a tool to detect cis-acting elements near promoter regions in rice”
The list shows a part of the results.

Sequences of proteins named here, by UniProt entry; tags and fusion partners are left off.
UniProt Q0JBA9, entry or part of it: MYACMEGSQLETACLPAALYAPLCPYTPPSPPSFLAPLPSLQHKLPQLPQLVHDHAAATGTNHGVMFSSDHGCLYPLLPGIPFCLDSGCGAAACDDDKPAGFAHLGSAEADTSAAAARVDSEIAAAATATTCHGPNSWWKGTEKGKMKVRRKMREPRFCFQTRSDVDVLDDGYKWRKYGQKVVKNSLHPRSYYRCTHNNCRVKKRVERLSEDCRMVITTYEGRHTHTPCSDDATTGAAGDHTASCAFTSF

Molecular target: OsWRKY34 (Oryza sativa, UniProt Q0JBA9 1-250)
Assay: protein-binding microarray (RPBM); PBS, 2% BSA, 51.3 ng/ul salmon testes DNA, 50 uM zinc acetate, 200 nM TF, 25 C, 1 h; high values mean tight binding
Settings: protein: recombinant; tags: N-terminal polyhistidine and DsRed monomer fusion (pET32a); label: CyDye5-dUTP incorporated in the synthesized complementary strand; 3' TTTTT single-stranded linker to array surface; dsDNA, one strand shown
Method in brief: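 Binding signal is defined as the fluorescence intensity of each feature in arbitrary units, read on an Axon 4000B scanner. Transcription factors with N-terminal polyhistidine and DsRed fusions came from E. coli BL21-CodonPlus and were purified on Ni–NTA. They were incubated at 200 nM for 1 h at 25 °C on a custom Agilent array that had been made double-stranded with Cy5-dUTP, with 50 µM zinc acetate present, and the array was washed.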

| Sequence | binding signal |
| --- | --- |
| TATATATATATATATATATATAGGCTTTTTAATTCCTCGCCGGAGTCACCTAGTGCAG | 8580 fluorescence intensity (a.u.) |
| GCCGTGTTCATGATATGGTGCTCGATATGGTCCGTTCATTCGGAGTCACCTAGTGCAG | 9100 fluorescence intensity (a.u.) |
| TAGTTTGATGCCTATCCAAAATTTGGTAGTGTTTTTCTAACGGAGTCACCTAGTGCAG | 8970 fluorescence intensity (a.u.) |
| CTTCCTGCCCGCAAACTAAATCCCACCGGCCACCGCCTCTCGGAGTCACCTAGTGCAG | 8830 fluorescence intensity (a.u.) |
| CTATTTCTTTTGTCCTTCATACAGAGGGTGTGTTTAGTTGCGGAGTCACCTAGTGCAG | 8770 fluorescence intensity (a.u.) |
| CGGTTTGGGCTCTTTTGGCTGTTCCATGGCGACGAGGCGCCGGAGTCACCTAGTGCAG | 8320 fluorescence intensity (a.u.) |
| CTTCGTTTTTTAATAGATGACGCCGTTGACTTTTTCTCACCGGAGTCACCTAGTGCAG | 22000 fluorescence intensity (a.u.) |
| GTTGCGGATGCGGAAGCAGCGCCACCTCGTTGACCTCACCCGGAGTCACCTAGTGCAG | 9210 fluorescence intensity (a.u.) |
| AGCAGGTATTTTTTTTCTTTCCTCCAATTTACCACGCCCTCGGAGTCACCTAGTGCAG | 8260 fluorescence intensity (a.u.) |
| CCACCGGCGACCGCCCTGCCCCGCCTGCAGCGGAATCCATCGGAGTCACCTAGTGCAG | 8400 fluorescence intensity (a.u.) |
| TGTGCATAAGACCCATAGGCAGGCGACACCGCGGCAGCCGCGGAGTCACCTAGTGCAG | 10400 fluorescence intensity (a.u.) |
| ACCACCACCACTGCCACTCTATTCACTTCACTTCCACCGCCGGAGTCACCTAGTGCAG | 9460 fluorescence intensity (a.u.) |
| GGGAGGATGGCACGTGGGTTTCGCTATTATCTTTTTTTGCCGGAGTCACCTAGTGCAG | 8980 fluorescence intensity (a.u.) |
| CGAGTATTTACTGCTGCTACTCCTATTCCTACTCCTACTCCGGAGTCACCTAGTGCAG | 10400 fluorescence intensity (a.u.) |
| GATTTGTTTGTCATCACGGCCACCATTTCACTGTCAGATCCGGAGTCACCTAGTGCAG | 9000 fluorescence intensity (a.u.) |
| TGCTTTCATCTCATGCATCACTTCTATCGGTGGCGATCGACGGAGTCACCTAGTGCAG | 8430 fluorescence intensity (a.u.) |
| TGAATCTATACACTCTTCTATTCAGATTCGTTGTACTATGCGGAGTCACCTAGTGCAG | 8040 fluorescence intensity (a.u.) |
| CCGTGCCGCCCGACCCGTCCGCGTTCTTCGTCAACGTCGGCGGAGTCACCTAGTGCAG | 9810 fluorescence intensity (a.u.) |
| CTCAGCACACCTCACCCACGCGAGCGAGACGCTGCGCCTACGGAGTCACCTAGTGCAG | 8040 fluorescence intensity (a.u.) |
| TCCTCTCTGTCTTCTGTCTTCTCTTCTTCTTCCTCACCAACGGAGTCACCTAGTGCAG | 11600 fluorescence intensity (a.u.) |
| GCTTTCTCGTTTTACGTGCTATGCAAATATTCTTCTCTCTCGGAGTCACCTAGTGCAG | 9720 fluorescence intensity (a.u.) |

2 records picked at random from the list so far, as already listed:

| Sequence | binding signal |
| --- | --- |
| CTTCGTTTTTTAATAGATGACGCCGTTGACTTTTTCTCACCGGAGTCACCTAGTGCAG | 22000 fluorescence intensity (a.u.) |
| TCCTCTCTGTCTTCTGTCTTCTCTTCTTCTTCCTCACCAACGGAGTCACCTAGTGCAG | 11600 fluorescence intensity (a.u.) |

The list goes on.

| Sequence | binding signal |
| --- | --- |
| TTTTTTCCTTCTCGAATGGCCTCGCGCGCGCGCGCGCGCGCGGAGTCACCTAGTGCAG | 9050 fluorescence intensity (a.u.) |
| ATTTTGGTTGGCCAACTTTAGCTAACGCATAGAGGACTTTCGGAGTCACCTAGTGCAG | 8620 fluorescence intensity (a.u.) |
| GACCCACTCCCTTTCTTTCTCTAACCTCTCTCCTCGCTTCCGGAGTCACCTAGTGCAG | 13300 fluorescence intensity (a.u.) |
| ACCGATGAGATGGTTGGGAGCCGATTAAGGTTATTGTTTTCGGAGTCACCTAGTGCAG | 8250 fluorescence intensity (a.u.) |
| ACCGATTAACCCTTAGTTCTGCCACCTCACTTCATATTACCGGAGTCACCTAGTGCAG | 8420 fluorescence intensity (a.u.) |
| TTGTTATTGATCTCGCTCTTACCGATCAACCGATGGGTCCCGGAGTCACCTAGTGCAG | 9160 fluorescence intensity (a.u.) |
| CTCCAGGGTTGTAATCTTGTAATTTTTTCCTGCTCTATCACGGAGTCACCTAGTGCAG | 9210 fluorescence intensity (a.u.) |
| TATTTTGGGGTGGAGGGAGTATAATAATTAAGTAAACATTCGGAGTCACCTAGTGCAG | 11600 fluorescence intensity (a.u.) |
| ACACAACTATTCATCACTTTATCTACTCCCGATATAATTACGGAGTCACCTAGTGCAG | 10400 fluorescence intensity (a.u.) |
| GAGCCTCCACCGACTCCAACACCAACACACCCTCGGGCCACGGAGTCACCTAGTGCAG | 10800 fluorescence intensity (a.u.) |
| TCTCCATCTCCGCCGGCGACCGTACTTAACCCGATCGGCCCGGAGTCACCTAGTGCAG | 8120 fluorescence intensity (a.u.) |
| CCTACTCTTCCAGCTTTTAAAATATGGTGTCGTTCACTTTCGGAGTCACCTAGTGCAG | 8870 fluorescence intensity (a.u.) |
| GCTCCCGTGATGGTAGTGGCTATACTTGGTCTTTCATATTCGGAGTCACCTAGTGCAG | 9510 fluorescence intensity (a.u.) |
| GTTCATGGCTCTGGTCTCTTGGTCCACTGGTGCCACTGCTCGGAGTCACCTAGTGCAG | 9100 fluorescence intensity (a.u.) |
| GATTCGTTTTACAAGTTGCAGTTCTTTACCGGCATCGCTTCGGAGTCACCTAGTGCAG | 9770 fluorescence intensity (a.u.) |
| CATCTTCTTTCTCTCTCTACTGTCCTAGCAATTCTCTCTCCGGAGTCACCTAGTGCAG | 8620 fluorescence intensity (a.u.) |
| AGAGTTACGTTCTAACAAATCGTCCACTGTTTTTCATCTCCGGAGTCACCTAGTGCAG | 8090 fluorescence intensity (a.u.) |
| TATACTTCCTCAGTTTTTTAATGTATAACACTGTTGACTTCGGAGTCACCTAGTGCAG | 9140 fluorescence intensity (a.u.) |
| GGAGATGTTCCATCCTTGACCGCCTGCAAGTCTGTCCCACCGGAGTCACCTAGTGCAG | 10400 fluorescence intensity (a.u.) |
| GCCGCCGCCACCACCACCGTGCCCGAGCTCGCCGACCACCCGGAGTCACCTAGTGCAG | 8300 fluorescence intensity (a.u.) |
| GCCCCTTTTTTTGTTTCATTCTCTGTGAAGCGTAAAATTTCGGAGTCACCTAGTGCAG | 8490 fluorescence intensity (a.u.) |
